{"source": "PubChem BioAssay AID1347423", "about": "(Functional Genomics Laboratory (NCATS/FGL), 2020)", "note": "Hit rate of the full screen: of about 52,000 sequences, about 210 (0.4%) were called active.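 How the source made its calls: active means gene whose silencing raises cell survival under the drug, median off-target-corrected z-score across its silencing RNAs 2 or more; inactive means the rest.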 Some of the results follow."}
{"experiment": "Resistance to Poly (ADP-Ribose) Polymerase inhibitor: Gene Identification via Genome-wide siRNA Screen", "details": "mouse BRCA2 R2336H ES cells, olaparib, CellTiter-Glo viability; hits give high values", "how_it_was_run": "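Genome-wide siRNA screen (3 siRNAs/gene, 20 nM) in mouse ES cells carrying hypomorphic BRCA2 R2336H; olaparib 500 nM added 48 h post-transfection, CellTiter-Glo viability 72 h later. Normalized to plate-median negative control; MAD z-scores, gene median, seed-adjusted.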"}
{"sequence": "CGCAUUCUACUCCUAUGAGTT against Pdcd2", "z-score": "inactive: 1.18"}
{"sequence": "GGGAUGUGUGAAUAAAAAATT against Elovl7", "z-score": "inactive: 0.501"}
{"sequence": "GGCGGUUUCACCUAUACAATT against A930029K19Rik", "z-score": "inactive: -1.42"}
{"sequence": "GCAAUUCUUGGAGUUCAAATT against 2810475A17Rik", "z-score": "inactive: -1.08"}
{"sequence": "CCCAUUAGAUGCUGAAUAUTT against Stmn1", "z-score": "inactive: -0.718"}
{"sequence": "GGAGGUCCAUGUCCUGCUUTT against Mesp2", "z-score": "inactive: 2.51"}
{"sequence": "GGAUUGUUGGGAAUUCUUUTT against Zfp60", "z-score": "inactive: -1.09"}
{"sequence": "GGCAUAAGCCAUUCAGCCGTT against 2810421I24Rik", "z-score": "inactive: -0.666"}
{"sequence": "GGAAGAAAAGACAAAUCUGTT against 2810452K22Rik", "z-score": "inactive: 0.551"}
{"sequence": "GGUACUGUACUGAUGACAUTT against Dhx32", "z-score": "inactive: 0.129"}
{"sequence": "GGCUUUGUAGAAAAUUCAUTT against Polr2a", "z-score": "inactive: -3.45"}
{"sequence": "GGACUACCUGCUCUUGAAATT against LOC626359", "z-score": "inactive: 0.813"}
{"sequence": "GCUACAUGAUUCAGCGGAATT against Itga3", "z-score": "inactive: 0.762"}
{"sequence": "GGUUCAUGAUGGAUGACAUTT against 2900011O08Rik", "z-score": "inactive: -1.93"}
{"sequence": "CCAUAUGGCAGUUUUGGCUTT against V1rd6", "z-score": "inactive: 0.506"}
{"sequence": "GGCUACAAAGGAGUUCCUATT against 1700023O11Rik", "z-score": "inactive: 2.78"}
{"sequence": "GGGAAAAAGAGAGUCUAUUTT against Tenc1", "z-score": "inactive: -0.115"}
{"sequence": "GCUUUGAUCGAUUCUCUCGTT against Syt11", "z-score": "inactive: -0.0284"}
{"sequence": "GGUCUAUCUGAAGAACAGUTT against Xpo5", "z-score": "inactive: -0.145"}
{"sequence": "GGGAAUUCUCCUUGAGAAUTT against BC012016", "z-score": "inactive: -0.308"}
{"sequence": "CCGCUAGAUUUCUCUUACCTT against 1810013B01Rik", "z-score": "inactive: 1.1"}
{"sequence": "GCGUAUCGAAUGAAGAUUCTT against Gtf2a1lf", "z-score": "inactive: 1.02"}
{"sequence": "GGCAGUGGCUUGGAUAAAUTT against 5730457F11Rik", "z-score": "active: 2.83"}
{"sequence": "GGCUCCUGUAAUGCUAACUTT against 2610041B18Rik", "z-score": "inactive: -1.34"}
{"sequence": "GGAGAAGGCUGCUGAUAUUTT against Phf8", "z-score": "inactive: -0.718"}
{"sequence": "GGAGGUCUUUUCUAAGUACTT against Pde6c", "z-score": "inactive: -0.939"}
{"sequence": "GGUGCUUUAUUAGGUAUUCTT against Atp6v1g3", "z-score": "inactive: 1.01"}
{"sequence": "GGAGCUUUUGGACCACUUGTT against Tmod1", "z-score": "inactive: -0.402"}
{"sequence": "GGUCGUUAUCACCAGGCUATT against Rpl26", "z-score": "inactive: -2.94"}
{"sequence": "GGUACAAAGUCCAUUCUUGTT against Nalp10", "z-score": "inactive: 0.193"}
{"sequence": "GGGUUUUGCCUUUGUCUAUTT against Supt4h", "z-score": "inactive: -1.91"}
{"sequence": "GGCUAUGCACUACUCAUUGTT against Galk1", "z-score": "inactive: -0.389"}
{"sequence": "GGUAAAAUAUGGUCUCUUCTT against AI649392", "z-score": "inactive: -0.151"}
{"sequence": "CCUAGCAUGUUUCUUGCUATT against B830028P19Rik", "z-score": "inactive: 0.963"}
{"sequence": "GGGCUUUGUGCCCAACAUGTT against D10Wsu52e", "z-score": "inactive: -1.94"}
{"sequence": "GCAGCUACGUAUACCAUGUTT against Gfm", "z-score": "inactive: 1.75"}
{"sequence": "GGUGCUAUUGUGGAUCAACTT against Zdhhc17", "z-score": "inactive: 0.212"}
{"sequence": "GGGAAUUCAUGAUCAAGAUTT against Abca3", "z-score": "inactive: -0.106"}
{"sequence": "GCAUUGUGAGACUAACGUGTT against Dusp7", "z-score": "inactive: 2.39"}
{"sequence": "GGUUGAAACUGCUCUCAAGTT against Prlpm", "z-score": "inactive: -0.193"}
{"sequence": "GGAAAGAAAGACUAGUAAATT against Cpne1", "z-score": "inactive: -0.782"}
{"sequence": "CCUCUCACCUCAAACGGAUTT against LOC547431", "z-score": "inactive: 0.00167"}
{"sequence": "GCAGGAAGGUCAUAUCUUATT against Olfr324", "z-score": "inactive: -0.0828"}
{"sequence": "GGGCAAGUUACAAGAAAUGTT against 2310075G12Rik", "z-score": "inactive: 2.38"}
{"sequence": "GGUGAUGUUCUAACCCUGCTT against Trex1", "z-score": "inactive: 0.738"}
{"sequence": "GGAACCUAAUUGAAUGGCUTT against 2310016A09Rik", "z-score": "inactive: 0.522"}
{"sequence": "GGUCAUGAGAGCAUACUGCTT against Ankrd10", "z-score": "inactive: 0.967"}
{"sequence": "GGAGGUUUAAAUUUGAUGUTT against Adcy9", "z-score": "inactive: 0.93"}
{"sequence": "GGGAAUAGCAAACUUAUCUTT against Nfil3", "z-score": "inactive: 0.65"}
{"sequence": "GGAAGACAAAUGAGUUAUGTT against Sema3b", "z-score": "inactive: -1.01"}
{"sequence": "GGAAGAAAAAAUCGAUCUGTT against Myl1", "z-score": "inactive: -0.553"}
{"sequence": "GCUAACCACCACAGUAUGATT against 0610027O18Rik", "z-score": "inactive: -1.3"}
{"sequence": "GCGUGAAUCCAAAUACAGUTT against MGC67569", "z-score": "inactive: -1.37"}
{"sequence": "UGGCUAAACGCACCAAGAATT against Rpl37a", "z-score": "inactive: -3.38"}
{"sequence": "GGAAAGAUGUGGAAGUAAATT against Rab6ip2", "z-score": "inactive: 0.47"}
{"sequence": "GCUUCACCGAGUCAUCAUATT against Mdc1", "z-score": "inactive: -1.43"}
{"sequence": "GGAUAGAUACUGUACUAAUTT against Surb7", "z-score": "inactive: 0.941"}
{"sequence": "GCGAUGUGCAUCGGAAUGCTT against Adprhl1", "z-score": "inactive: 0.171"}
{"sequence": "GGAAUGGAAAUUCAGAGAGTT against 9830123M21Rik", "z-score": "inactive: 0.698"}
{"sequence": "GGUCAAUACUCGAGUGCCATT against Gstm3", "z-score": "inactive: 0.809"}
{"sequence": "GGACUAGCAGUAAUAAAAGTT against Zdhhc9", "z-score": "inactive: 0.926"}
{"sequence": "CGCAGUCGGUCAAGAACAATT against Snrpd2", "z-score": "inactive: -2.7"}
{"sequence": "GGAAAACUCAAAGUGCUGATT against Mpra", "z-score": "inactive: 0.225"}
{"sequence": "GUGUCCUGACCAGGGUUCUTT against Gpr31c", "z-score": "inactive: -0.537"}
{"sequence": "GGAAAUCUUUAUCUGACAGTT against Cbx3", "z-score": "inactive: -0.66"}
{"sequence": "GGCAGAGGCAAAAGAACAATT against Mrps5", "z-score": "inactive: -0.414"}
{"sequence": "GCUACAGCAACAUAACAUGTT against Acvrinp1", "z-score": "inactive: 1.42"}
{"sequence": "GGAAGAGAACCAAAACACATT against 6030449J21", "z-score": "inactive: -1.08"}
{"sequence": "GGAAGUGAGGGAGAACAUCTT against Fchsd1", "z-score": "inactive: -0.895"}
{"sequence": "GGAUGCUGUAACACUUUAUTT against Bcl6", "z-score": "inactive: -1.71"}
{"sequence": "GCCCAAUAGAAGCUGGAUGTT against 1700018L24Rik", "z-score": "inactive: -0.245"}
{"sequence": "GCCUCUUAAUGCUUUUGUATT against Sfxn1", "z-score": "inactive: -0.528"}
{"sequence": "GGCAAGAGACAGAAUGAUATT against Ppargc1a", "z-score": "inactive: 1.41"}
{"sequence": "GGUAUUAAAGACUACUCCATT against 2900070E19Rik", "z-score": "inactive: 1.64"}
{"sequence": "GGAUGCAGCUAGAAUUUAATT against 4932438A13Rik", "z-score": "inactive: 0.495"}
{"sequence": "CCGUUUCUAUCGAGUGAAATT against B230218O03", "z-score": "inactive: 0.523"}
{"sequence": "GCUGCCAUUUCGCCAAUCUTT against Mfap4", "z-score": "inactive: 0.335"}
{"sequence": "GGAAAUGUGGUAAUUCCGATT against Cd44", "z-score": "inactive: 0.892"}
{"sequence": "GGAUGAAGAUCAGAUUCAATT against Metapl1", "z-score": "inactive: -0.064"}
{"sequence": "GGACCUGUUUGAGCAGAGGTT against Eps8l2", "z-score": "inactive: -0.292"}
{"sequence": "GGCAUUGACCCUUCUUGGATT against Stam2", "z-score": "inactive: -1.14"}
{"sequence": "GCUAUGGCCAUUAUUGGAGTT against LOC547343", "z-score": "inactive: -0.606"}
{"sequence": "GGACAGUCAAACAGAGAAGTT against Unc84a", "z-score": "inactive: -1.73"}
{"sequence": "GGAGUACAUGGUACACGUUTT against Fut8", "z-score": "inactive: 0.969"}
{"sequence": "GGCUCAAAACCACACCACUTT against Olfr477", "z-score": "inactive: 0.195"}
{"sequence": "GGUACUGCUGUUGUCAAUGTT against Prdx3", "z-score": "inactive: 0.0754"}
{"sequence": "CCAGUGGCCCAUUUUUUGUTT against Slc18a1", "z-score": "inactive: 1.48"}
{"sequence": "GCACUGAACCAAUUUGCCCTT against Dsg1c", "z-score": "inactive: -0.603"}
{"sequence": "GGAGCAGUCCUAAUGAUACTT against Phf6", "z-score": "inactive: -1.59"}
{"sequence": "GGUGGAGCGAAUCAAGGAGTT against Nedd8", "z-score": "inactive: -0.792"}
{"sequence": "GAUUACUCCACCUAUCUCUTT against BC058638", "z-score": "inactive: -1.73"}
{"sequence": "GCAUUUGAAUCGACUACAGTT against Vti1b", "z-score": "inactive: 0.572"}
{"sequence": "GGAUCUGUUACUCUGAUACTT against Pias4", "z-score": "inactive: -0.823"}
{"sequence": "GGCAAUGUCUUUAAAAUACTT against Txndc8", "z-score": "inactive: -0.712"}
{"sequence": "CAAGGAAUACACUCAGAACTT against A730008H23", "z-score": "inactive: -0.314"}
{"sequence": "GCGAUAUGACAGACUCUUCTT against Axud1", "z-score": "inactive: -0.733"}
{"sequence": "CCAUUCUUGCCUUUGUGCUTT against 1200008O12Rik", "z-score": "inactive: 0.486"}
{"sequence": "CCAAAGGUAUGCAGUAUGATT against Cdh4", "z-score": "inactive: 1.07"}
{"sequence": "CCUGAACGCAGCAACAAACTT against 1700049L16Rik", "z-score": "inactive: -0.0682"}
{"sequence": "CCUGACCAAUUGAGCUUCCTT against Rusc1", "z-score": "inactive: 0.302"}
{"sequence": "GCAAGUGCGGAAGAAAGGATT against AU041783", "z-score": "inactive: -0.269"}
{"sequence": "CCCUUCAGCACGAUGAAAATT against 4930434E21Rik", "z-score": "inactive: 1.54"}
{"sequence": "GGUGAUUCUCAUCUAAAUGTT against Mtdh", "z-score": "inactive: -0.281"}
